Source: paper PMC6633398
Read-outs that look alike come from different tables or passages of the source. These are yes or no findings as the source states them, for the method shown. In cells and extracts the contact can be indirect. These calls come from enrichment with a bait or labelling near it, and not all partners need be listed.

By UniProt entry, the sequences of proteins in these tests, tags left out. Where a name states a change or a piece, a line headed by the entry shows the natural chain unless it says otherwise.
UniProt O43681: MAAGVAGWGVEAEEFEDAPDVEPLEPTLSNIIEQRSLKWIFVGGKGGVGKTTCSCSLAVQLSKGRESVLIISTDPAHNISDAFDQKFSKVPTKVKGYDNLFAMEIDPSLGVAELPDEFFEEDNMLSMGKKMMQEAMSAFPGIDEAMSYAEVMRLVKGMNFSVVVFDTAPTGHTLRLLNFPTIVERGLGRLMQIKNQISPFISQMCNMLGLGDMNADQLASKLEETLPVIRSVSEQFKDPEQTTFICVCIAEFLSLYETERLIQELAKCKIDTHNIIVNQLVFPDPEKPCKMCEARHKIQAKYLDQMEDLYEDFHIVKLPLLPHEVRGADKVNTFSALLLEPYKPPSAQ
UniProt O95292: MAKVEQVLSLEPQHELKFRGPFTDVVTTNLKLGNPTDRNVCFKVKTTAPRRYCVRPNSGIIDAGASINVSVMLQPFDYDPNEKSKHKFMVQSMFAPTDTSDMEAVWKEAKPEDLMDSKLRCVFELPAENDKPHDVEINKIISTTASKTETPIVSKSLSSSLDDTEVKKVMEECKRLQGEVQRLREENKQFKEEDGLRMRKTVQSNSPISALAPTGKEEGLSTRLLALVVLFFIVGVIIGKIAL
UniProt Q14789: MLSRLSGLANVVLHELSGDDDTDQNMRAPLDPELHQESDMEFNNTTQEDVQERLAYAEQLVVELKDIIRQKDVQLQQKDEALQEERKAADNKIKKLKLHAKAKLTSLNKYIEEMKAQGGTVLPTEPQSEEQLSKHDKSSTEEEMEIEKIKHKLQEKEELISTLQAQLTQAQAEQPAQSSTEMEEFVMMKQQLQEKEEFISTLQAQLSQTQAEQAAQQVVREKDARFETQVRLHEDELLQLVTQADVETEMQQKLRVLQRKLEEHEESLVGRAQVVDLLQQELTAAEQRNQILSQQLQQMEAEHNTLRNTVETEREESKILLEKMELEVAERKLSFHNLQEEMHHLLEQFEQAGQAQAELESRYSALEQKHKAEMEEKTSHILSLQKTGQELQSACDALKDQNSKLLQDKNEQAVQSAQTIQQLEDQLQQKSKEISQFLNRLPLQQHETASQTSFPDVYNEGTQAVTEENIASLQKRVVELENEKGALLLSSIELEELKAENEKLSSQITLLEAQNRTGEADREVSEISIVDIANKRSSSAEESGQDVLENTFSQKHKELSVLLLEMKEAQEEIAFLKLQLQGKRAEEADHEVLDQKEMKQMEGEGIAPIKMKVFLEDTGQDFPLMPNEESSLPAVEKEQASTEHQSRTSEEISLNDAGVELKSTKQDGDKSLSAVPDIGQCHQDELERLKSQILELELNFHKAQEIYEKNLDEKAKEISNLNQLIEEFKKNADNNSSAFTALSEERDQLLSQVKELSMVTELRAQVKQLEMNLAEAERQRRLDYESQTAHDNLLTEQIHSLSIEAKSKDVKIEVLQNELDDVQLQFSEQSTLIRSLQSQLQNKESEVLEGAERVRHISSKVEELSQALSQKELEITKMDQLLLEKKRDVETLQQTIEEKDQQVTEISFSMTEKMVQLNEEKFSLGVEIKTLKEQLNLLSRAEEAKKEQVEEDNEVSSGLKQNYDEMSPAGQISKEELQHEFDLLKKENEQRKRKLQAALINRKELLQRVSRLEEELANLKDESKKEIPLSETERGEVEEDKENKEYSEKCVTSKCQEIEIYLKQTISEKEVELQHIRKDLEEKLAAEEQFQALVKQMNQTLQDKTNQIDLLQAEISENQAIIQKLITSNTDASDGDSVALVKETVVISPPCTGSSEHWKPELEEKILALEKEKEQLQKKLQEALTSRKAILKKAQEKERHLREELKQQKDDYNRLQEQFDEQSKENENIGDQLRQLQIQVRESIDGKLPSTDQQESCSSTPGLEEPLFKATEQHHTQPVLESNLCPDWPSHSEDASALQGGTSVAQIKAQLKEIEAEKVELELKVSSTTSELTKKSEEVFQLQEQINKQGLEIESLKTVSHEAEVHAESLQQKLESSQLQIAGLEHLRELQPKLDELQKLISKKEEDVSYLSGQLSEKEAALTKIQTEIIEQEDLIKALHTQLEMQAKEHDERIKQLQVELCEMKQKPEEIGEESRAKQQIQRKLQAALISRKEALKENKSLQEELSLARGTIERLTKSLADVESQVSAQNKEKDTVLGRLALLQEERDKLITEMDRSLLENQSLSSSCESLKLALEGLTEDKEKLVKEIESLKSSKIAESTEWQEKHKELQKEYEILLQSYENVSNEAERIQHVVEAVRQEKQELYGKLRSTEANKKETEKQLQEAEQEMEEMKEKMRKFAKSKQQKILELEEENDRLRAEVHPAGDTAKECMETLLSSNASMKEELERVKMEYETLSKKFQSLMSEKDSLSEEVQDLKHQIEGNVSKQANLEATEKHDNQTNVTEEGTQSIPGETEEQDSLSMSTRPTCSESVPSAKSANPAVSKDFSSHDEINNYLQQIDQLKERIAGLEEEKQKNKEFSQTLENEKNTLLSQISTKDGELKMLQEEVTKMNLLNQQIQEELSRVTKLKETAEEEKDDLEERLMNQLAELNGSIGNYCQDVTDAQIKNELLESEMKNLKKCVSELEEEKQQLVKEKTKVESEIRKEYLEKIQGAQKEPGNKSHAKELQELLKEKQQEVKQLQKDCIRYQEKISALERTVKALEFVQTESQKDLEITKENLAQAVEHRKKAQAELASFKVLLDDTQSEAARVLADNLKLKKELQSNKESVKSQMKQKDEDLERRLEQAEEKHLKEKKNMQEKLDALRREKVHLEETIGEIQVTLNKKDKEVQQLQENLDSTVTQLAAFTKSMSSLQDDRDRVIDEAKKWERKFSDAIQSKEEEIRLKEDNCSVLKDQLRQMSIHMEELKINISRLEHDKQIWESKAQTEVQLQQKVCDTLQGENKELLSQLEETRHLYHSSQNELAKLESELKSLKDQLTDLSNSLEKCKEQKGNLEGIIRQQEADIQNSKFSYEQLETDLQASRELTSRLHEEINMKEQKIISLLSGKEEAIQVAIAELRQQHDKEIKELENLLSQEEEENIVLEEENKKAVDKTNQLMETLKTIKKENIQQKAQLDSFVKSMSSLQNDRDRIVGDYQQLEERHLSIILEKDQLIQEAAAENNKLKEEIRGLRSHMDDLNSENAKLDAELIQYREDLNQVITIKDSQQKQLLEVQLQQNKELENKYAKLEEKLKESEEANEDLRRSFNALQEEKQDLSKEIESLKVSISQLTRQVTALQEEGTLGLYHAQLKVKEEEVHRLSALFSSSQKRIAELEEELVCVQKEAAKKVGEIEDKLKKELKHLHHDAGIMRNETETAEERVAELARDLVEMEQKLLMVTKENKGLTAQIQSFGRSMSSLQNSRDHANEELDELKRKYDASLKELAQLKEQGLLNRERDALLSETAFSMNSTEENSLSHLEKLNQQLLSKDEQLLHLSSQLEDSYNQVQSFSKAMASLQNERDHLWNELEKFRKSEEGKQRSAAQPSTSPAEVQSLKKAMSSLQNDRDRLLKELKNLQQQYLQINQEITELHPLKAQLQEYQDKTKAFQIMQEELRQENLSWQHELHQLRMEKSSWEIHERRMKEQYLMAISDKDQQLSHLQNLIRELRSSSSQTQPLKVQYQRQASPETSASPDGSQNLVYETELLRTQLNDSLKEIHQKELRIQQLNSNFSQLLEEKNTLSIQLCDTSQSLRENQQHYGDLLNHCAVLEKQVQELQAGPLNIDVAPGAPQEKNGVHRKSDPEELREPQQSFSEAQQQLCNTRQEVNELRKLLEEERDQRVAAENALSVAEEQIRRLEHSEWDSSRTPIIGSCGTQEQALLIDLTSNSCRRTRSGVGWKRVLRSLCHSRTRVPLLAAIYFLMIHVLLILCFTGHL

Experiments:
[1] = molecular target: c-Myc–TRC40_(D74E), ATPase-impaired trap mutant of TRC40 (UniProt O43681)
[2] = molecular target: c-Myc–TRC40_(D74E), ATPase-impaired trap mutant of TRC40 (UniProt O43681); remark: listed apart in the source

Substance | binding [1] | binding [2]
vesicle-associated membrane-protein-associated protein VAPB (from UniProt O95292 1-243) | binds | 
giantin (also known as GOLGB1) (from UniProt Q14789 1-3259) |  | binds
